This is an account of results in the supplement of paper PMC10338343.

± gives the standard deviation. Only a part is listed here, and it is no random draw. The uncertainty is large for many entries.

The first assay deals with MILI (PIWIL2) piRISC loaded with L1MC piRNA (26 nt). Briefly: pre-steady-state target cleavage rate (min^-1); MIWI and MILI are mouse PIWI proteins and EfPiwi is from a freshwater sponge; tags in brackets are library labels; higher = faster piRNA-guided slicing of the target. The conditions noted are these: guide: L1MC piRNA 5'p-UAACUAAAUACUAUGCAAGCUGUAGG; auxiliary factor: 500 nM mouse GTSF1. The method, boiled down: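 Sequencing of uncleaved targets, normalised to depth and to weakly complementary targets, was the readout of this Cleave-'n-Seq assay. A transcribed, DNA-blocked target RNA library (0.1 nM) was mixed with 1 nM active affinity-purified piRISC carrying one synthetic guide, with or without 500 nM GTSF1 partner protein, in HEPES–potassium acetate buffer at 33 °C for 0–8 or 0–960 min. Three trials were pooled, k3 was capped at 0.0001 min^-1, and a burst-and-steady-state fit gave the pre-steady-state cleavage rate.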
With UCCUGGAUGUCGAACGUAAGUAUUUUGUAA, the “pre-steady-state target cleavage rate” value worked out at 0.000107 ± 0.05. Same read-out and setting: under UCCUGGAUGUCGAACGUAAGUUUUAGUUA stands 0.000137 ± 0.052. For UCCUGGAUCAGCUUUGCAUAGUAUUUAGUUA, the “pre-steady-state target cleavage rate” value stood at 0.297 ± 0.016.

Staying with this assay, now noted: guide: L1MC piRNA 5'p-UAACUAAAUACUAUGCAAGCUGUAGG; auxiliary factor: none (no GTSF1).
UCCUGGAUGUCGUUGCAUUGUAUAUAGUUA: the “pre-steady-state target cleavage rate” value is 0.000463 ± 0.015.

With UCCUGGAUGUCGAACGUUAGUAAUUAGUUA, the “pre-steady-state target cleavage rate” value was below 0.0001. With UCCUGCUACAGCUUGCUUAGUAUUUUGUUA, the “pre-steady-state target cleavage rate” value was found to be 0.00199 ± 0.0029. Still for that read-out and setting: the same measure for UCCUCCUACAGCUUGCAUAGUAUUUAGUGA: 0.0019 ± 0.0036; for UCCUGGAUGUCGAACGUAUGUUUUUAGUAA: 0.000191 ± 0.022; for UCCUGGUUCAGCUUGCAUAGUAUUUAGAAA: 0.00151 ± 0.0045. On the same count and under the same terms, the same measure for UCCUGGAUGAGCUUGCAUAGAAUUUAGAAA: 0.000693 ± 0.0089.

Consider UCCUGGAUGUCGAACGUAUGUAUUUACGUUA, for which the “pre-steady-state target cleavage rate” value worked out at 0.000268 ± 0.024.

For the sequence UCCUGGAUGUCGAACGAUAGUAAAAAGUUA, the “pre-steady-state target cleavage rate” value worked out at 0.00016 ± 0.032.

Consider UCCUGGAUGUCGAACGUUUAGUAUUUAGUUA, for which the “pre-steady-state target cleavage rate” value is 0.000499 ± 0.01. The same measure, in the same setting: the same measure for UCCUGGAUGUCGAACGUAAGUAAUUAGUUA: below 0.0001. As to UCCUGGAUGUCGAAGCAUAGUAUGUAGUUA, the “pre-steady-state target cleavage rate” value amounted to 0.00156 ± 0.004. Still for that read-out and setting: the same measure for UCCUGGAUGUCGAACCAUAGUAUGUAGUUA: 0.000236 ± 0.022; for UCCUGGUACUGCUUGCAUAGUAUAUAGUUA: 0.00197 ± 0.0042; for UCCUGGUACAGCUUGCAAAGUAUAUAGUUA: 0.00308 ± 0.0032. Same read-out and setting: the same measure for UCCUGGUACUGCUUGCAUAGUAUUAAGUUA: 0.0026 ± 0.0036; for UCCUGGUACAGCUUGGAUAGUAUUUAGAUA: 0.00197 ± 0.0056; for UCCUCCUACAGCUUGCAUUGUAUUUAGAUA: 0.00176 ± 0.0035. For UCCUGGAUGUCGAUCGUUAGUAUUUAGUUA, the “pre-steady-state target cleavage rate” value was determined as 0.000644 ± 0.0069.

Turning to “UCCUGGAUGUCGUUGCAUACAUAAAUCAAA [g12:g18:cont:t1A]”, the “pre-steady-state target cleavage rate” value was determined as 0.000336 ± 0.014. The same measure, in the same setting: under UCCUGGAUGUCGAUCGAUAGUAUUUAGUUA stands 0.000159 ± 0.015; under UCCUGGAUGUCGAACGUAAGUAAUUACUUA, 0.000111 ± 0.034; under UCCUGGAUGUCGUUGGAUAGUAUUUUGUUA, 0.000396 ± 0.015. For UCCUGGAUGAGCUUGCAUAGUAUUUAGAUUA, the “pre-steady-state target cleavage rate” value is 0.00184 ± 0.004. Same read-out and setting: under UCCUGGAUGUCGAACGUAUCUCAUUUAGUUA stands 0.000107 ± 0.029; under UCCUGGAUGUGCUUGCAUACUAUUAAGUUA, 0.000566 ± 0.013; under UCCUGCUAGAGCUUGCAUAGUAUUUAGAUA, 0.00164 ± 0.0037. On to UCCUGGUACAGCUUGCAUAGUAUUAAGAUA, for which the “pre-steady-state target cleavage rate” value stood at 0.00177 ± 0.0044.

Turning to UCCUGGUACAGCUUGCAUAGUAAAUAGUUA, the “pre-steady-state target cleavage rate” value is 0.00287 ± 0.0033. Consider UCCUGGAUGAGCUUGCAUAGUUUUUACUUA, for which the “pre-steady-state target cleavage rate” value was 0.000992 ± 0.0064. Still for that read-out and setting: under UCCUGGAUGUCGAACGUAAGUAUAUAGUUA stands 0.000167 ± 0.023. As for UCCUCCUACAGCUUGCAUAGUUUUAAGUUA, the “pre-steady-state target cleavage rate” value amounted to 0.00163 ± 0.004. Consider UCCUGGAUGUCGAACGUUUCAAUUUAGUUA, for which the “pre-steady-state target cleavage rate” value came to 0.00013 ± 0.031. Regarding UCCUGGAUGUCGAACGUAUGUAUUUAGUA, the “pre-steady-state target cleavage rate” value was below 0.0001. The same measure, in the same setting: under UCCUGGAUGAGCUUGCAUAGUUUAUAGUUA stands 0.00143 ± 0.0049. On the same count and under the same terms, under UCCUGGAACAGCUUGCAUAGUAAAAUCAAA stands 0.00141 ± 0.0044.

As to UCCUGGAUGUCGAACGUAUCUUAAUAGUUA, the “pre-steady-state target cleavage rate” value was determined as 0.000201 ± 0.018.
